# Measurements reported in PubChem BioAssay AID602196 (INSERM, 2012).
# Aim: 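Knock-downs that protect lung cancer cells from cisplatin or sensitise them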
# Cells: human A549 lung cancer cells
# Reagent: siRNA pair against human genes
# Timing: 48 h transfection before cisplatin; time from cisplatin to read-out not stated
# Treatment: cisplatin at a dose killing half of control-siRNA cells; exact dose and duration not given
# Measured: 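Cisplatin cell death as a shift from the 50% death seen with control siRNA; siRNAs toxic or growth-blocking alone scored 0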
# Direction: two-siRNA summed score (-2 to +2): higher = both siRNAs protect from cisplatin killing; -2 means both sensitise; mean protection from cisplatin (shift in death) and protection from cisplatin (shift in death), siRNA C and protection from cisplatin (shift in death), siRNA D: higher = protection from cisplatin killing
# Active means: 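Each siRNA scores 0 if harmful alone by LDH or WST-1, otherwise +1 if it reduces and -1 if it increases cisplatin killing; a gene is active when both siRNAs agree (sum +2 or -2)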
# Calls: active = both siRNAs shift cisplatin killing the same way; inactive = no consistent shift, or siRNA harmful alone
# Here is an unselected part of about 23,000 reagents tested. Of all reagents, 455 (2%) are marked active. 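Active includes both protection and sensitisation; some change values fall well beyond the stated -50 to +50 range.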 A number with no mark means an inactive call. Reagents against one gene are numbered here. No sequences are given here. Not given: the amount of reagent.
The opening 7 entries, ahead of the listing:
gene symbol,reagent no.,two-siRNA summed score (-2 to +2),mean protection from cisplatin (shift in death) (%),"protection from cisplatin (shift in death), siRNA C (%)","protection from cisplatin (shift in death), siRNA D (%)"
LOC441777,1,1,11.5,4.8,18.3
LOC440091,1,0,0.2,-4.1,4.5
LOC136157,1,0,6.9,16.4,-2.7
MAOA (GeneID 4128),1,0,5.1,4.5,5.8
TMEM71 (GeneID 137835),1,0,-10.4,-10.2,-10.7
KLK9 (GeneID 284366),1,0,-10.2,-24.9,4.5
UBE2C (GeneID 11065),1,-2 (active),-30.7,-18.6,-42.8

The list itself, from the first entry:
gene symbol,reagent no.,two-siRNA summed score (-2 to +2),mean protection from cisplatin (shift in death) (%),"protection from cisplatin (shift in death), siRNA C (%)","protection from cisplatin (shift in death), siRNA D (%)"
LOC441777,1,1,11.5,4.8,18.3
LOC440091,1,0,0.2,-4.1,4.5
LOC136157,1,0,6.9,16.4,-2.7
MAOA (GeneID 4128),1,0,5.1,4.5,5.8
TMEM71 (GeneID 137835),1,0,-10.4,-10.2,-10.7
KLK9 (GeneID 284366),1,0,-10.2,-24.9,4.5
UBE2C (GeneID 11065),1,-2 (active),-30.7,-18.6,-42.8
AKIRIN2 (GeneID 55122),1,0,9.2,3.6,14.9
PDXK (GeneID 8566),1,1,27.2,53.1,1.2
PDXK (GeneID 8566),2,2 (active),28,28.3,27.8
LOC388957,1,-1,-5.2,-8.1,-2.2
SRSF12 (GeneID 135295),1,0,10.6,2.4,18.7
APEX1 (GeneID 328),1,0,-6.5,-5.4,-7.6
CD2BP2 (GeneID 10421),1,1,13.3,8.4,18.2
KRTAP8-1 (GeneID 337879),1,1,12.8,12.2,13.5
TP53I13 (GeneID 90313),1,0,5.7,10.9,0.4
CCDC142 (GeneID 84865),1,0,-12.1,-9.2,-15
BALR6 (GeneID 339862),1,0,4,9.3,-1.3
ANKRD13D (GeneID 338692),1,0,4.9,6.1,3.6
NUP214 (GeneID 8021),1,1,12.8,0.3,25.2
LOC132203,1,0,8.4,8.7,8.2
NCSTN (GeneID 23385),1,0,-17.8,9.1,-44.8
FABP7 (GeneID 2173),1,0,6.2,18.9,-6.5
UNC119 (GeneID 9094),1,0,4.6,10,-0.9
CTPS1 (GeneID 1503),1,0,-0.7,-11,9.6
CYP2A13 (GeneID 1553),1,0,7.3,6.2,8.4
GRIK2 (GeneID 2898),1,-1,-11.3,1.4,-24
POLRMT (GeneID 5442),1,1,17.7,16.6,18.8
LOC338749,1,-1,-7.6,-13.3,-1.9
LOC116068,1,0,14.2,15.6,12.9
XRRA1 (GeneID 143570),1,0,0.5,2.9,-1.9
MALRD1 (GeneID 340895),1,1,8.3,22.3,-5.7
MRGPRG-AS1 (GeneID 283303),1,0,2.8,-1.1,6.8
LOC391498,1,1,15.6,11.5,19.7
SOX2-OT (GeneID 347689),1,0,-7.1,0.3,-14.4
NBR2 (GeneID 10230),1,0,-0.8,-4.5,2.9
B4GALT7 (GeneID 11285),1,0,-0.1,4.4,-4.5
LOC399933,1,1,14.8,9.8,19.7
DLGAP4 (GeneID 22839),1,0,-4.5,-2.2,-6.7
LHX9 (GeneID 56956),1,0,7,2.6,11.3
PLSCR3 (GeneID 57048),1,0,0.6,8.1,-7
SNX2 (GeneID 6643),1,0,-8.5,-15.3,-1.7
HBZ (GeneID 3050),1,1,16.3,12.6,19.9
LOC402300,1,2 (active),10.1,8.7,11.4
SRSF6 (GeneID 6431),1,0,9.5,13.8,5.2
MED13 (GeneID 9969),1,0,-5.6,-10.7,-0.5
ZNF649 (GeneID 65251),1,0,0.2,0.5,0
GHITM (GeneID 27069),1,-1,-7.5,2.2,-17.2
ZBTB46 (GeneID 140685),1,0,0.5,8.3,-7.3
SMG7-AS1 (GeneID 284649),1,0,6.6,4.7,8.4
LOC441048,1,0,7.4,11.6,3.1
SEMA3D (GeneID 223117),1,0,7.6,6.4,8.8
GBA3 (GeneID 57733),1,0,-2.8,10.6,-16.2
PLN (GeneID 5350),1,0,-3.3,-8.6,2.1
EDEM1 (GeneID 9695),1,0,-3.3,1.4,-8
FZD3 (GeneID 7976),1,0,-4.1,0.5,-8.7
PRAC1 (GeneID 84366),1,0,9.8,5.8,13.9
